Data from publication PMC5974087, “The RPAP3-Cterminal domain identifies R2TP-like quaternary chaperones” (Nature Communications, 2018).
Where two headings read alike, the source gives them in different places. These are yes or no findings as the source states them, for the method shown. Binding seen in cells or lysates may run through a third protein. These calls come from enrichment with a bait or labelling near it, and not all partners need be listed. Where a sequence is shown, tags or fusion partners need not be part of it. Values belong to the molecule of their own block, whether it stands above or below them.

Amino acid sequences for entries named in this document (tags omitted).
UniProt Q9Y265: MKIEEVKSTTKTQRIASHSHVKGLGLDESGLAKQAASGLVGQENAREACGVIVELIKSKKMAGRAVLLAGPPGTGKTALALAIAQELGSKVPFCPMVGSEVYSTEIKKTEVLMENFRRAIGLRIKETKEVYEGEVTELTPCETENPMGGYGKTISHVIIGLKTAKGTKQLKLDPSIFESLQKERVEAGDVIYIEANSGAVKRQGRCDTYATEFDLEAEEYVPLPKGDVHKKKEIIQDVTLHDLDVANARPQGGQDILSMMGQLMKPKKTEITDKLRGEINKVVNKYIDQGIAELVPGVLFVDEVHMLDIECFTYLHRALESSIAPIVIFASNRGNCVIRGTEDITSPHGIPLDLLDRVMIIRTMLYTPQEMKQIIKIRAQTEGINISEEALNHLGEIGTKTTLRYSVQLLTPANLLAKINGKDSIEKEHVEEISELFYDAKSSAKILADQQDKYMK
UniProt O95816: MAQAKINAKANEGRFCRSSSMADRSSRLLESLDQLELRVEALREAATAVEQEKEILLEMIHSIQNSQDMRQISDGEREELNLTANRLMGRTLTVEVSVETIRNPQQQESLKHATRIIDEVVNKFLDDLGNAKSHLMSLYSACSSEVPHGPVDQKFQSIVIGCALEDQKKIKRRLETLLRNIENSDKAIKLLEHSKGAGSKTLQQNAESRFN

Assays:
Assay in all cases: affinity purification with mass spectrometry; SILAC; extracts of HeLa cells stably expressing the 3xFLAG-GFP fusion, GFP-Trap beads, 75 min at 4 °C, lysis buffer 0.5% triton X-100, 20 mM HEPES pH 7.4, 150 mM NaCl; control: HeLa H9 without the fusion
GFP-PIH1D3 (human) [1] = biological target: T1, GFP-PIH1D3 (human) (UniProt Q9NQM4)
T1 sequence: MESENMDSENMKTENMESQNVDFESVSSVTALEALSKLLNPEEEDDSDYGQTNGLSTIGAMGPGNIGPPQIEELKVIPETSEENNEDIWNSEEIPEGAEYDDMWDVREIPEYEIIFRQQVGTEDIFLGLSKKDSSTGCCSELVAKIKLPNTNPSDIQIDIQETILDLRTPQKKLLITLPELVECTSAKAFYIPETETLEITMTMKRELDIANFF

GFP-PIH1D2 (human) [2] = biological target: T2, GFP-PIH1D2 (human) (UniProt Q8WWB5)
T2 sequence: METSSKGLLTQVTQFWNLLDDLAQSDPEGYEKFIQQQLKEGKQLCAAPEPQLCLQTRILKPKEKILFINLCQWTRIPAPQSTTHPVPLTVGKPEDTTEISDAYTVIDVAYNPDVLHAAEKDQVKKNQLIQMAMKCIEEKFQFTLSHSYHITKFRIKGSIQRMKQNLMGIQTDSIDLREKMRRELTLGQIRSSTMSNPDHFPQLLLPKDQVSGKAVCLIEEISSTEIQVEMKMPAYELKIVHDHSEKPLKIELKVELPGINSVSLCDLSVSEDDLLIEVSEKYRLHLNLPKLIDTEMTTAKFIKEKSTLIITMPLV

GFP-DNAAF2 (human) [3] = biological target: T3, GFP-DNAAF2 (human) (UniProt Q9NVR5)
T3 sequence: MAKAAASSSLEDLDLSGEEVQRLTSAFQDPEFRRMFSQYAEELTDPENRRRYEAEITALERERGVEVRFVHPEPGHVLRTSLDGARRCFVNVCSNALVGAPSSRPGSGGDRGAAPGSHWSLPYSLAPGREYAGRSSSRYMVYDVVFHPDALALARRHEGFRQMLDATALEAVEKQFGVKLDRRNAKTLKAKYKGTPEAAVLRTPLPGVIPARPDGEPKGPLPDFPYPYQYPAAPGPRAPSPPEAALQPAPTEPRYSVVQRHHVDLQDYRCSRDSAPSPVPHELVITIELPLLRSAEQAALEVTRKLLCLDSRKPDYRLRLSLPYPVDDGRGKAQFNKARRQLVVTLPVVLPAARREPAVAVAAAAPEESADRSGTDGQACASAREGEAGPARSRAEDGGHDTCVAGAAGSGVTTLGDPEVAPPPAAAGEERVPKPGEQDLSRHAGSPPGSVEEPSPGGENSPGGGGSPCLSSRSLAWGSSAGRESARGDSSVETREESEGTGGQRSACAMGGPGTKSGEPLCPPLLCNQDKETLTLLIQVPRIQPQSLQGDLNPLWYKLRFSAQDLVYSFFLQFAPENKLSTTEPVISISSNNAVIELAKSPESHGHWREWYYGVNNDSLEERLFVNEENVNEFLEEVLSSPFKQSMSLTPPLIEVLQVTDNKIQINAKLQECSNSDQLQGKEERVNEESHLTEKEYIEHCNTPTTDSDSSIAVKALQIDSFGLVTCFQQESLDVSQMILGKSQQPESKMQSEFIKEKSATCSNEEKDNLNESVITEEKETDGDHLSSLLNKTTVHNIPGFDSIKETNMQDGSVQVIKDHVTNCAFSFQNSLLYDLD

GFP-PIH1D2 (human) [4] = biological target: T2, GFP-PIH1D2 (human); remark: listed apart in the source
GFP-DNAAF2 (human) [5] = biological target: T3, GFP-DNAAF2 (human); remark: listed apart in the source
GFP-PIH1D3 (human) [6] = biological target: T1, GFP-PIH1D3 (human); remark: listed apart in the source

binding (GFP-PIH1D3 (human) [1]): binds weakly
binding (GFP-PIH1D2 (human) [2]): binds
binding (GFP-DNAAF2 (human) [3]): binds weakly
Molecule: RUVBL1 (endogenous) (from UniProt Q9Y265 1-456)

binding (GFP-PIH1D2 (human) [2]): binds
Molecule: BAG2 (from UniProt O95816 1-211)

binding (GFP-PIH1D2 (human) [2]): binds
Molecule: HSP70 (endogenous) (human (endogenous in HeLa))

Continued, molecule first:

B1: SPAG1 (endogenous) (protein, UniProt Q07617 1-926)
chain: MTTKDYPSLWGFGTTKTFKIPIEHLDFKYIEKCSDVKHLEKILCVLRSGEEGYYPELTEFCEKHLQALAPESRALRKDKPAATAASFTAEEWEKIDGDIKSWVSEIKKEEDKMHFHETETFPAMKDNLPPVRGSNSCLHVGKEKYSKRPTKKKTPRDYAEWDKFDVEKECLKIDEDYKEKTVIDKSHLSKIETRIDTAGLTEKEKDFLATREKEKGNEAFNSGDYEEAVMYYTRSISALPTVVAYNNRAQAEIKLQNWNSAFQDCEKVLELEPGNVKALLRRATTYKHQNKLREATEDLSKVLDVEPDNDLAKKTLSEVERDLKNSEAASETQTKGKRMVIQEIENSEDEEGKSGRKHEDGGGDKKPAEPAGAARAAQPCVMGNIQKKLTGKAEGGKRPARGAPQRGQTPEAGADKRSPRRASAAAAAGGGATGHPGGGQGAENPAGLKSQGNELFRSGQFAEAAGKYSAAIALLEPAGSEIADDLSILYSNRAACYLKEGNCSGCIQDCNRALELHPFSMKPLLRRAMAYETLEQYGKAYVDYKTVLQIDCGLQLANDSVNRLSRILMELDGPNWREKLSPIPAVPASVPLQAWHPAKEMISKQAGDSSSHRQQGITDEKTFKALKEEGNQCVNDKNYKDALSKYSECLKINNKECAIYTNRALCYLKLCQFEEAKQDCDQALQLADGNVKAFYRRALAHKGLKNYQKSLIDLNKVILLDPSIIEAKMELEEVTRLLNLKDKTAPFNKEKERRKIEIQEVNEGKEEPGRPAGEVSMGCLASEKGGKSSRSPEDPEKLPIAKPNNAYEFGQIINALSTRKDKEACAHLLAITAPKDLPMFLSNKLEGDTFLLLIQSLKNNLIEKDPSLVYQHLLYLSKAERFKMMLTLISKGQKELIEQLFEDLSDTPNNHFTLEDIQALKRQYEL
binding (GFP-PIH1D2 (human) [4]): binds

B2: DYX1C1-iso-a (endogenous) (protein, UniProt Q8WXU2 1-420)
chain: MPLQVSDYSWQQTKTAVFLSLPLKGVCVRDTDVFCTENYLKVNFPPFLFEAFLYAPIDDESSKAKIGNDTIVFTLYKKEAAMWETLSVTGVDKEMMQRIREKSILQAQERAKEATEAKAAAKREDQKYALSVMMKIEEEERKKIEDMKENERIKATKALEAWKEYQRKAEEQKKIQREEKLCQKEKQIKEERKKIKYKSLTRNLASRNLAPKGRNSENIFTEKLKEDSIPAPRSVGSIKINFTPRVFPTALRESQVAEEEEWLHKQAEARRAMNTDIAELCDLKEEEKNPEWLKDKGNKLFATENYLAAINAYNLAIRLNNKMPLLYLNRAACHLKLKNLHKAIEDSSKALELLMPPVTDNANARMKAHVRRGTAFCQLELYVEGLQDYEAALKIDPSNKIVQIDAEKIRNVIQGTELKS
binding (GFP-DNAAF2 (human) [5]): binds

B3: LRIF1 (protein, UniProt Q5T3J3 1-769)
chain: MSNNLRRVFLKPAEENSGNASRCVSGCMYQVVQTIGSDGKNLLQLLPIPKSSGNLIPLVQSSVMSDALKGNTGKPVQVTFQTQISSSSTSASVQLPIFQPASSSNYFLTRTVDTSEKGRVTSVGTGNFSSSVSKVQSHGVKIDGLTMQTFAVPPSTQKDSSFIVVNTQSLPVTVKSPVLPSGHHLQIPAHAEVKSVPASSLPPSVQQKILATATTSTSGMVEASQMPTVIYVSPVNTVKNVVTKNFQNIYPKPVTEIAKPVILNTTQIPKNVATETQLKGGQHSQAAPVKWIFQDNLQPFTPSLVPVKSSNNVASKILKTFVDRKNLGDNTINMPPLSTIDPSGTRSKNMPIKDNALVMFNGKVYLLAKKGTDVLPSQIDQQNSVSPDTPVRKDTLQTVSSSPVTEISREVVNIVLAKSKSSQMETKSLSNTQLASMANLRAEKNKVEKPSPSTTNPHMNQSSNYLKQSKTLFTNPIFPVGFSTGHNAPRKVTAVIYARKGSVLQSIEKISSSVDATTVTSQQCVFRDQEPKIHNEMASTSDKGAQGRNDKKDSQGRSNKALHLKSDAEFKKIFGLTKDLRVCLTRIPDHLTSGEGFDSFSSLVKSGTYKETEFMVKEGERKQQNFDKKRKAKTNKKMDHIKKRKTENAYNAIINGEANVTGSQLLSSILPTSDVSQHNILTSHSKTRQEKRTEMEYYTHEKQEKGTLNSNAAYEQSHFFNKNYTEDIFPVTPPELEETIRDEKIRRLKQVLREKEAALEEMRKKMHQK
binding (GFP-PIH1D3 (human) [6]): binds
